# The whole screen tested about 300,000 compounds, of which about 3,700 (1.2%) were called active. The shares of active, inactive and inconclusive entries below differ from those in the screen. Calls follow the shape of the full dose curve; tested in HEK293 cells. Where the call is inconclusive, the potency comes from a doubtful curve fit.
# Experiment: qHTS for Inhibitors of binding or entry into cells for Lassa Virus; also: nearly all actives have a fitted effect of over 50% in size
# Details: Lassa virus pseudotype entry inhibition, cell reporter; activity change, negative = inhibition: at 37.9 µM (top of the series) unless noted
# % is scaled to controls: 0 for no effect and ±100 for the full control effect; potency is read from the fitted curve at half-maximal effect.
Structure (SMILES),"activity change, negative = inhibition",Potency
CCCn1c(SCC(=O)O)nc2ccccc21,inactive: 1.15%,–
CC1CCCCN1CC(=O)Nc1ccc(Oc2ccccc2)cc1 (centres undefined),–,"inconclusive: 32.6 µM [inhibitor, single point]"
CC(=O)c1ccc(NC(=O)CN2C(=O)CCc3ccccc32)cc1,–,"inconclusive: 22.4 µM [inhibitor, single point]"
CC1CCC(Nc2nc3c(-c4ccc(Cl)cc4)nnn3c3ccccc23)CC1 (centres undefined),–,"inconclusive: 10 µM [activator, partial curve]"
Cc1ccc(Cn2cc(CCC(=O)NC3CCC(C)CC3)c3ccccc32)cc1 (centres undefined),–,"inconclusive: 6.31 µM [activator, partial curve]"
O=C1C=C(N2CCCCCC2)C(=O)N1c1ccc(Cl)cc1,–,"inconclusive: 6.31 µM [activator, single point]"
O=C(CSc1oc(-c2ccccc2)nc1S(=O)(=O)c1ccc(Cl)cc1)Nc1ccc(F)cc1,–,"inconclusive: 6.31 µM [inhibitor, single point]"
C=CC(=O)N1C/C(=C/c2ccc(F)cc2)C(=O)/C(=C\c2ccc(F)cc2)C1,–,active: 2.51 µM
CC(C)(C)c1nnc(N/N=C/c2cc(Br)ccc2O)n(N)c1=O,–,"inconclusive: 5.62 µM [inhibitor, single point]"
CCOc1ccc(Br)cc1S(=O)(=O)N1CCCC1,–,"inconclusive: 0.708 µM [activator, full curve, poor fit]"
O=C(Cc1ccc([N+](=O)[O-])cc1)NCc1cccnc1,inactive: 4.39%,–
C=CCNC(=O)c1cc2c(=O)c3ccccc3oc2nc1C,–,"inconclusive: 11.2 µM [activator, partial curve, poor fit]"
Cc1cccc(NC(=O)c2c([N+](=O)[O-])c(C(C)(C)C)nn2C)c1,–,"inconclusive: 35.5 µM [activator, single point]"
CCOc1ccccc1C(=O)NCC(=O)Nc1ncccc1C,inactive: 18.9%,–
O=C(Nc1ccccn1)c1ccc2c(c1)OCCO2,–,"inconclusive: 1.12 µM [inhibitor, full curve, poor fit]"
O=C(CCl)NN1C(=O)NC(c2ccccc2)(c2ccccc2)C1=O,–,"inconclusive: 35.5 µM [inhibitor, single point]"
Cc1ccc(CNS(=O)(=O)c2c(C(=O)N3CCCCC3)c(C)n(C)c2C)o1,inactive: 33.9% [at 46.1 µM],–

Structure (SMILES),"activity change, negative = inhibition",Potency
COC(=O)CSc1ncc2c(n1)-c1ccccc1N(Cc1ccccc1C)S2(=O)=O,–,"inconclusive: 3.16 µM [activator, partial curve, poor fit]"
CCSc1nnc([C@H](Cc2c[nH]c3ccccc23)NC(=O)OC(C)(C)C)o1,–,"inconclusive: 16.4 µM [inhibitor, partial curve, poor fit]"
O=C1NC(=O)/C(=C\c2ccccc2OCc2ccccc2)S1,inactive: 9.34% [at 46.1 µM],–
CCCCSc1nc(-c2ccc(OC)cc2)ccc1C#N,inactive: 4.66% [at 46.1 µM],–
CC(=O)Nc1ccc(N2C(=O)c3ccc(S(=O)(=O)c4ccc(C(=O)O)cc4)cc3C2=O)cc1,–,"inconclusive: 1.12 µM [inhibitor, full curve]"
COC(=O)C1=CN(CCCN2CCCC2=O)C=C(C(=O)OC)C1c1ccccc1C(F)(F)F,–,"inconclusive: 22.4 µM [inhibitor, single point]"
CC(C)n1cc(C(=O)c2cc(Br)ccc2O)cc(C#N)c1=O,inactive: -6.89%,–
CCn1cnc2c1c(=O)n(Cc1cccc(Br)c1)c(=O)n2Cc1ccccc1,–,"inconclusive: 3.16 µM [inhibitor, partial curve, poor fit]"
Cc1ccc(C2=NNC(=Nc3ccc(F)cc3)SC2)cc1,–,"inconclusive: 12.6 µM [inhibitor, partial curve, poor fit]"
Cc1cccc(-c2nc(C)c(CCNC(=O)C(=O)Nc3cccc(Cl)c3C)s2)c1,inactive: 3.14% [at 46.1 µM],–
O=C(CN(C(=O)CNC(=O)c1ccco1)c1cccc(F)c1)NC1CCCCC1,inactive: 19.2% [at 46.1 µM],–
COc1ccc(C(=O)NCC(=O)OCC(=O)N2CC(C)OC(C)C2)cc1OC (centres undefined),–,"inconclusive: 0.708 µM [inhibitor, single point]"
CCOc1cc(C2C(C(=O)OC)=CN(C3CCCC3)C=C2C(=O)OC)cc(Br)c1O,–,"inconclusive: 0.231 µM [inhibitor, full curve, poor fit]"
CCC1CCCCN1C(=O)CCCOc1ccccc1 (centres undefined),–,"inconclusive: 22.4 µM [inhibitor, partial curve, poor fit]"
Cc1ccccc1NC(=O)N(CCc1nc2ccccc2[nH]1)Cc1ccccc1,–,"inconclusive: 35.5 µM [inhibitor, partial curve, poor fit]"
O=C(NCc1cccc(Cl)c1)c1ccc(CS(=O)Cc2ccc(Cl)cc2)o1 (centres undefined),–,"inconclusive: 35.5 µM [inhibitor, single point]"
O=C(c1cnc2ccccn2c1=O)N1CCc2ccccc21,–,"inconclusive: 0.164 µM [activator, full curve, poor fit]"

# Quoted at random: three entries already listed
Structure (SMILES),"activity change, negative = inhibition",Potency
C=CC(=O)N1C/C(=C/c2ccc(F)cc2)C(=O)/C(=C\c2ccc(F)cc2)C1,–,active: 2.51 µM
CCOc1ccc(Br)cc1S(=O)(=O)N1CCCC1,–,"inconclusive: 0.708 µM [activator, full curve, poor fit]"
Cc1cccc(NC(=O)c2c([N+](=O)[O-])c(C(C)(C)C)nn2C)c1,–,"inconclusive: 35.5 µM [activator, single point]"

# — PubChem BioAssay AID540256 (National Center for Advancing Translational Sciences (NCATS), 2011)
